No constants are given. Whether binding was seen depends on the method and setting. Binding seen in cells or lysates may run through a third protein. Some results given as binding are weak or reduced against the parent protein; the word gives no strength. For some assays here: Where a sequence is shown, tags or fusion partners need not be part of it. One block for each molecule: values may come before it.
Key:
Myc-OGT full-length = molecular target: T1, Myc-OGT full-length (UniProt O15294); test: co-IP; HEK293 cells transfected with 2 µg GFP-EIF3H together with Myc-OGT full-length or mutants; NP-40 lysis buffer; precipitated with Myc antibody, detected by GFP antibody
T1 sequence: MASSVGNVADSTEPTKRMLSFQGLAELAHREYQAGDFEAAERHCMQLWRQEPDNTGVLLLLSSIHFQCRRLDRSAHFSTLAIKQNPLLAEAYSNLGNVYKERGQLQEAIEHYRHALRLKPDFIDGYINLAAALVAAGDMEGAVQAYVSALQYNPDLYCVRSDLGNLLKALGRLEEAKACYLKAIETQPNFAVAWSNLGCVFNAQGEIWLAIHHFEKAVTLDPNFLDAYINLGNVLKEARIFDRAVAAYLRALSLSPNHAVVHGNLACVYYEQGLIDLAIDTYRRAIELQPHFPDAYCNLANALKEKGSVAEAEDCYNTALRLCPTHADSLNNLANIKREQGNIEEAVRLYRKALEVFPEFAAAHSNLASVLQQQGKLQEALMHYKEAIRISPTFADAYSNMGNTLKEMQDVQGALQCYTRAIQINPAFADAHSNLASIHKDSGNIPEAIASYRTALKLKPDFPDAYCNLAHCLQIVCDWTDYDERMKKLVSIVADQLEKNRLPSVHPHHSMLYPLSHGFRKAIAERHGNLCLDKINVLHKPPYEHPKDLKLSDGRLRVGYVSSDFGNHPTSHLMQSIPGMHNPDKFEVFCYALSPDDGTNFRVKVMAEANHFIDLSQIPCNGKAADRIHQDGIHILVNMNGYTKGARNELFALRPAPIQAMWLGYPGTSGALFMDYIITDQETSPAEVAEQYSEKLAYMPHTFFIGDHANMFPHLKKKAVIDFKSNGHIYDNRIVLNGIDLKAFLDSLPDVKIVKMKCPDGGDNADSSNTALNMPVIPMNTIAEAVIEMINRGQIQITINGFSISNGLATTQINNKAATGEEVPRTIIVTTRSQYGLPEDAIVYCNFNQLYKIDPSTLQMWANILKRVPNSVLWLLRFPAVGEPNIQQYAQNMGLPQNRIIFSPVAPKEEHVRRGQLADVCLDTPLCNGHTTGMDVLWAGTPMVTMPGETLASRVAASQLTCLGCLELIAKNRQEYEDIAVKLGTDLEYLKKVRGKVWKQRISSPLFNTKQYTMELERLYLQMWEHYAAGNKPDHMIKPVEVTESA

By UniProt entry, the sequences of proteins in these tests, tags left out.
UniProt O15372: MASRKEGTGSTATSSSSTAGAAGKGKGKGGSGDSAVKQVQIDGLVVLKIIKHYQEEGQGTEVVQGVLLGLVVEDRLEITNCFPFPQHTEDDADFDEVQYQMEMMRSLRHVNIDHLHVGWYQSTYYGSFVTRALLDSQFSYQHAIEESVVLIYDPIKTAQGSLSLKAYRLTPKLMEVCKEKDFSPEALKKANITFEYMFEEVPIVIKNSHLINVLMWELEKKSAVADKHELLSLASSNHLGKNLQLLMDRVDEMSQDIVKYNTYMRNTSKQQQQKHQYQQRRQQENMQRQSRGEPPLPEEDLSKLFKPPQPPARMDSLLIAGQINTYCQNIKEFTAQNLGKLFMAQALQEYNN

[1] = molecular target: eukaryotic translation initiation factor 3 subunit H (EIF3H), endogenous (human (endogenous in LM3)) (UniProt O15372); test: co-IP; endogenous proteins in LM3 cell lysate; Co-IP lysis buffer, precleared with rabbit IgG, antibody at 4 °C overnight, Protein A/G PLUS-Agarose beads

binding (Myc-OGT full-length): binds
Molecule: GFP-EIF3H full-length (from UniProt O15372 1-352)

binding [1]: binds
B1: O-GlcNAc transferase (OGT), endogenous (protein, UniProt O15294 1-1046)
chain: T1 sequence

Source: PMC10413709
